PubChem BioAssay AID602196 | INSERM, 2012

Assay: 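Knock-downs that protect lung cancer cells from cisplatin or sensitise them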
Cells: human A549 lung cancer cells
Reagents: siRNA pair against human genes
Time to read-out: 48 h transfection before cisplatin; time from cisplatin to read-out not stated
Challenge: cisplatin at a dose killing half of control-siRNA cells; exact dose and duration not given
Measurement: 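Cisplatin cell death as a shift from the 50% death seen with control siRNA; siRNAs toxic or growth-blocking alone scored 0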
Scale: two-siRNA summed score (-2 to +2): higher = both siRNAs protect from cisplatin killing; -2 means both sensitise; mean protection from cisplatin (shift in death): higher = protection from cisplatin killing
Hit rule: 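Each siRNA scores 0 if harmful alone by LDH or WST-1, otherwise +1 if it reduces and -1 if it increases cisplatin killing; a gene is active when both siRNAs agree (sum +2 or -2)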
Calls: active = both siRNAs shift cisplatin killing the same way; inactive = no consistent shift, or siRNA harmful alone
Here is one part, drawn at random, of about 23,000 deposited reagents. Over the whole deposit, 455 (2%) were called active. 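Active includes both protection and sensitisation; some change values fall well beyond the stated -50 to +50 range.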 The numbers tell different reagents against one gene apart. Further read-outs or replicates are left out here. No sequences are given here. Not stated in the record: the amount of reagent.

FIRRE scored two-siRNA summed score (-2 to +2) = 0; mean protection from cisplatin (shift in death) (%) = 8.8; inactive.
For GNG13, the entry reads two-siRNA summed score (-2 to +2) = 0; mean protection from cisplatin (shift in death) (%) = -13.9; inactive.
After knock-down of TOMM70 the results were two-siRNA summed score (-2 to +2) = 1; mean protection from cisplatin (shift in death) (%) = 15; inactive.
After knock-down of NDUFAF1, the screen gave two-siRNA summed score (-2 to +2) = 0; mean protection from cisplatin (shift in death) (%) = 9.3; inactive.
ESRRA showed two-siRNA summed score (-2 to +2) = 0; mean protection from cisplatin (shift in death) (%) = 5.3; inactive.
For CDC50B, the entry reads two-siRNA summed score (-2 to +2) = 0; mean protection from cisplatin (shift in death) (%) = 5.3; inactive.
After knock-down of GNG3, the screen gave two-siRNA summed score (-2 to +2) = 0; mean protection from cisplatin (shift in death) (%) = 10; inactive.
For SLC38A1, the values are two-siRNA summed score (-2 to +2) = 0; mean protection from cisplatin (shift in death) (%) = 2.6; inactive.
BHLHE23 scored two-siRNA summed score (-2 to +2) = 0; mean protection from cisplatin (shift in death) (%) = 3.4; inactive.
MAPK11 gave two-siRNA summed score (-2 to +2) = 1; mean protection from cisplatin (shift in death) (%) = 5.7; inactive.
With knock-down of TBC1D10C, the screen gave two-siRNA summed score (-2 to +2) = 1; mean protection from cisplatin (shift in death) (%) = 10.4; inactive.
Silencing of NWD2 gave: two-siRNA summed score (-2 to +2) = 0; mean protection from cisplatin (shift in death) (%) = 5.4; inactive.
For LINC00960, the entry reads two-siRNA summed score (-2 to +2) = 1; mean protection from cisplatin (shift in death) (%) = 17.3; inactive.
With knock-down of PKN3 the results were two-siRNA summed score (-2 to +2) = 1; mean protection from cisplatin (shift in death) (%) = 21.6; inactive.
After knock-down of ADAM12, the record shows two-siRNA summed score (-2 to +2) = 0; mean protection from cisplatin (shift in death) (%) = -6.9; inactive.
N4BP2L2 #1 showed two-siRNA summed score (-2 to +2) = 0; mean protection from cisplatin (shift in death) (%) = -7.6; inactive.
With knock-down of N4BP2L2 #2, the record shows two-siRNA summed score (-2 to +2) = 0; mean protection from cisplatin (shift in death) (%) = 3.3; inactive.
Against LRRC4 the deposit lists two-siRNA summed score (-2 to +2) = 0; mean protection from cisplatin (shift in death) (%) = 17.3; inactive.
Knock-down of LINC01270 gave: two-siRNA summed score (-2 to +2) = 0; mean protection from cisplatin (shift in death) (%) = 12.4; inactive.
Against MAP4K5, the entry reads two-siRNA summed score (-2 to +2) = 0; mean protection from cisplatin (shift in death) (%) = 7.9; inactive.
With knock-down of LOC389202 the results were two-siRNA summed score (-2 to +2) = 0; mean protection from cisplatin (shift in death) (%) = 3.4; inactive.
After knock-down of COPRS, the record shows two-siRNA summed score (-2 to +2) = 0; mean protection from cisplatin (shift in death) (%) = 13.3; inactive.
With knock-down of COBLL1, the screen gave two-siRNA summed score (-2 to +2) = 1; mean protection from cisplatin (shift in death) (%) = 13.3; inactive.
LOC401128 gave two-siRNA summed score (-2 to +2) = 0; mean protection from cisplatin (shift in death) (%) = -4.1; inactive.
For FAM171A1, the entry reads two-siRNA summed score (-2 to +2) = 0; mean protection from cisplatin (shift in death) (%) = -0.6; inactive.
With knock-down of MR1 the results were two-siRNA summed score (-2 to +2) = 1; mean protection from cisplatin (shift in death) (%) = 3.8; inactive.
SCYL3 showed two-siRNA summed score (-2 to +2) = 0; mean protection from cisplatin (shift in death) (%) = -1.2; inactive.
TXLNB scored two-siRNA summed score (-2 to +2) = 0; mean protection from cisplatin (shift in death) (%) = 9; inactive.
SLCO1C1 scored two-siRNA summed score (-2 to +2) = 0; mean protection from cisplatin (shift in death) (%) = 5.5; inactive.
Silencing of LOC440745 gave: two-siRNA summed score (-2 to +2) = 0; mean protection from cisplatin (shift in death) (%) = 9; inactive.
Against LOC389816, the values are two-siRNA summed score (-2 to +2) = 0; mean protection from cisplatin (shift in death) (%) = 1.8; inactive.
